Patent publication US6723556
Results are given in words; binding and its absence hold for the method and conditions named. Some binding calls cover weakened binding; strength is not graded here.

Chains of the proteins cited; added tags and fusions are not shown. Lines headed by an entry give the natural chain unless they say otherwise; changes in a name come on top. Residues count along the entry.
UniProt Q28005, residues 27-701: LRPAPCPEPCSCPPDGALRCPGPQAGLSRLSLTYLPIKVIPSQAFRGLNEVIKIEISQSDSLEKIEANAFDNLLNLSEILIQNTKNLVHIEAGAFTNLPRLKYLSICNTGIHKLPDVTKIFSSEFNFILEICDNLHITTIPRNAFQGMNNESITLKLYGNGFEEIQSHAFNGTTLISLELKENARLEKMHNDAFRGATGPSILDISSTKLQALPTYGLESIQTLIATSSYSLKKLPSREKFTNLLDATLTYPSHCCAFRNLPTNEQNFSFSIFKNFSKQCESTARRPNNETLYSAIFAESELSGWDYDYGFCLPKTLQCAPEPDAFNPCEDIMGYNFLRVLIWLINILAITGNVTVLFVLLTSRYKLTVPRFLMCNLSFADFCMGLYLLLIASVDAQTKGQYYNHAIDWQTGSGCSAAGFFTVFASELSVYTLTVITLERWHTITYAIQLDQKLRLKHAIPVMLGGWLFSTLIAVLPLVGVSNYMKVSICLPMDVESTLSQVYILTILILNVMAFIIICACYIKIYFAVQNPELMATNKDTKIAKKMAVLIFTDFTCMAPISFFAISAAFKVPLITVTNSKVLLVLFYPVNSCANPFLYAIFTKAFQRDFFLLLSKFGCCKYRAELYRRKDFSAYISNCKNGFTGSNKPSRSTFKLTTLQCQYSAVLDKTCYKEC
UniProt P01215: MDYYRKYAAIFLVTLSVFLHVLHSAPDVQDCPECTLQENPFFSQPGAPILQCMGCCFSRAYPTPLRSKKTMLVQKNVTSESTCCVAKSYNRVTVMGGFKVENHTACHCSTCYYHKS

Biological target: purified LH-hCG receptor of bovine corpora lutea (detergent-solubilised) (bovine) (UniProt Q28005)
Assay: affinity chromatography of the receptor on hCG coupled to Sepharose-4B

binding: binds
Substance: human chorionic gonadotropin (hCG) (from UniProt P01215 25-116; P0DN86 21-165) (ligand)
